Measured values as given in the supplement of paper PMC3334620.
Whole data set: some 33,000 sequences, median “E-score (-0.5 to 0.5)” near -0.0014, cut for the highest 2% near 0.25. This is one part of the list.

Target: T1, Cad1 (UniProt P24813)
T1 sequence: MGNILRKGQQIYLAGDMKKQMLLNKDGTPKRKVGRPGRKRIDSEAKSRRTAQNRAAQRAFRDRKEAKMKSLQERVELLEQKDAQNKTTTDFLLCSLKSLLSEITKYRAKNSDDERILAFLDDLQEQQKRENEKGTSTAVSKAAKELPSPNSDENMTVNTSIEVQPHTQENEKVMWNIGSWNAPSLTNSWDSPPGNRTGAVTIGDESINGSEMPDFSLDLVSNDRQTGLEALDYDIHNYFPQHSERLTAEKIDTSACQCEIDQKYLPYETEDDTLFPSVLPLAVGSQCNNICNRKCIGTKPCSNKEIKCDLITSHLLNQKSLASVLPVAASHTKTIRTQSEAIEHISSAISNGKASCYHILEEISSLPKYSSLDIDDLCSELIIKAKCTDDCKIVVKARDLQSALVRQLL
Assay: PBM E-score (8-mer binding enrichment) (E-score (-0.5 to 0.5)); higher = stronger / more preferred TF binding
Details: protein concentration: 100 nM; construct: GST-full length
Experimental: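 Universal 'all 10-mer' protein binding microarrays (Agilent AMADID 015681) probed with GST-tagged S. cerevisiae TFs (full-length or DBD) made by in vitro transcription/translation (PURExpress), about 100-200 nM. Bound TF was detected with fluorescent anti-GST. Each ungapped 8-mer (which stands for itself and its reverse complement) is scored by the PBM enrichment score (E-score), a modified Wilcoxon-Mann-Whitney statistic from -0.5 to +0.5, computed with the Universal PBM Analysis Suite. Scale: above 0.35 generally sequence-specific binding.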

Point of comparison: AGGTAACC, “PBM E-score” value -0.00576. Against it:
- AAGCCCGT — lower, -0.204
- GCCGACAA — higher, 0.0987
- ATCTTTGA — higher, -0.00269
- GCACAGCC — lower, -0.0327
- ACCCGATG — higher, 0.103
- TAAAAACA — higher, 0.213
- TGGGTAAA — lower, -0.207
- CCAAACGC — lower, -0.00589
- GAGAAATC — higher, 0.107
- ACGTCTCC — lower, -0.151
- GACTCCGA — higher, 0.0347
- AATGGGAG — lower, -0.0358
- CGGCGACA — higher, -0.00392
- ACGTTGTG — higher, 0.0202
- AAGCACGA — lower, -0.0452
- CACGCCAC — lower, -0.0782
- CAGAGGTC — lower, -0.0835
- CTGATTCC — lower, -0.149
- GAGGGCGA — lower, -0.317
- AATAGTTG — higher, 0.192
- GCATTTAC — lower, -0.0215
- CCCGATCC — lower, -0.297
- CGTCACGC — higher, 0.0214
- AAAACAAA — higher, 0.091
- GCTGGAAC — lower, -0.148
- GCACGTGC — higher, 0.32
- ACACCAAA — higher, 0.254
- CGGATTCC — lower, -0.015
- ACAGCGCG — higher, 0.114
- ATCTGTGC — higher, 0.0878
- CGAGGAGA — lower, -0.265
- AAGTCAGT — lower, -0.00706
- CGCGCCTC — higher, 0.0878
- AGTAATGA — higher, 0.127
- GCCCGACC — lower, -0.0915
- AGTAGATA — higher, 0.282
- AAGGCAAG — lower, -0.242
- AGGAAGTC — lower, -0.225
- AGTTGCCC — higher, 0.096
- ACATTGAT — higher, 0.161
- AGCCCACC — lower, -0.131
- GGGAAAAA — higher, 0.181
- ACGATAGT — higher, 0.161
- CTGGGGGC — lower, -0.377
- ATGAGGCG — lower, -0.164
- ATCGGTTG — higher, 0.132
- AGCAACGG — higher, 0.0958
- TGATCACA — higher, 0.123
- AGCAATGA — higher, 0.0476
- GGAGTTCA — lower, -0.0351
- CCTACGTA — lower, -0.149
- CTGGATCA — lower, -0.151
- AAATGGCG — lower, -0.16
- CGAATTCA — higher, 0.0615
- AGCCAGGC — higher, 0.0257
- TAGAACTA — higher, 0.0157
- CGGCAATA — higher, 0.0935
- TATTACAA — higher, 0.152
- ACAACGAG — lower, -0.0738
- ATGCGGTA — lower, -0.208
- CCGTCTGC — higher, -0.00418
- AAATGTCG — higher, 0.0695
- AGCCAAAT — higher, 0.0169
- AATCTCAT — higher, 0.0796
- CAGTCACA — higher, 0.179
- CTAGGGGA — lower, -0.202
- CTCGACAG — higher, -0.00093
- AAGGAGCA — lower, -0.183
- CACAATCC — higher, 0.0771
- ACTCACGA — higher, 0.0591
- ATTTTTAG — higher, 0.0211
- CTGGTGTC — higher, 0.0128
- GACACTGC — lower, -0.0407
- CCATAACC — lower, -0.113
- TCGTCGCA — lower, -0.0104
- GAGCTGCC — lower, -0.154
- CGGAAAGA — lower, -0.0252
- CCAAACTA — lower, -0.0349
- AACGAACT — lower, -0.0473
- AGTACATG — lower, -0.0558
- GTAGTCGA — higher, 0.0225
- ATTACTGG — lower, -0.0522
- ACTATGTG — lower, -0.0308
- ACCTGACA — higher, 0.0788
- GGGTGTAC — lower, -0.157
- CCGGATCC — lower, -0.0194
- CCCAGTCA — lower, -0.241
- AAGCATGT — higher, 0.0317
- GATAAAGC — higher, 0.0358
- ACTTCCGG — lower, -0.00579
- CAGCGGTC — lower, -0.229
- ACCTGAAA — higher, 0.0769
- AAGGGAGC — lower, -0.279
- AGGTGATC — higher, 0.0891
- GAGGGTAC — lower, -0.344
- ACGTCCAT — higher, 0.0953
- ATCCTACC — lower, -0.119
- CTCGCAGA — lower, -0.0592
- AGCCGGTG — lower, -0.135
- TCCGCTCA — lower, -0.195
- ATTGAAAC — higher, 0.0715
- ACGTATTA — higher, 0.125
- GGGTTACA — lower, -0.0862
- CACTCGTA — lower, -0.161
- ACTAATGA — higher, 0.128
- GGAATTGA — higher, 0.0411
- CAGGATTC — higher, 0.00521
- GCACCTTA — higher, 0.034
- CGGACTAC — lower, -0.0671
- CAGCAGGC — higher, 0.0279
- ACTTAGAG — lower, -0.171
- AGCGCAGG — lower, -0.0954
- CGGCCACG — lower, -0.121
- CGATCACG — higher, 0.273
- CGCGAAGC — higher, 0.219
- ACAGTCTC — lower, -0.184
- ACATGCAG — higher, 0.0212
- CTACCGAG — lower, -0.0829
- CTTTAATA — higher, 0.218
- AGACAAAC — lower, -0.0413
- CGTCGAAC — lower, -0.0156
- AATAGGCC — lower, -0.0239
- AACAGGTA — lower, -0.113
- CTAGTGGC — lower, -0.135
- CAAACGAA — higher, 0.0543
- ATGAGGTC — lower, -0.214
- AGTGGTCA — lower, -0.143
- ACTCAAAG — lower, -0.0553
- CCACCCGG — lower, -0.154
- AACAAACT — higher, 0.145
- CTCAGCGA — higher, 0.0552
- CCTCGACC — lower, -0.171
- CCGGATGA — higher, 0.116
- AAGCGTGA — higher, 0.0493
- AGCAAGCC — lower, -0.113
- GGAGTAGA — higher, 0.0431
- ACGCGTAT — higher, 0.18
- AGCCTAAG — lower, -0.182
- TATCGATA — higher, 0.131
- ACCTGGAT — lower, -0.225
- CACACAGA — higher, 0.146
- GTTGTCTA — higher, 0.0583
- ATCGACAG — higher, 0.00447
- CGTCTAAG — lower, -0.00903
- AGCTGGTC — higher, 0.0301
- AACCTATA — higher, 0.121
- CTTGTCGA — higher, 0.00022
- ACTGTCCA — lower, -0.0303
- CCAAGACG — lower, -0.0257
- AAATTTGG — higher, 0.075
- ATGAGTCC — lower, -0.0879
- ATAAGCGC — higher, 0.139
- CAGTTCCG — lower, -0.0436
- CTGCACTC — lower, -0.0313
- AGACCCCG — higher, 0.095
- AGAGCCAT — lower, -0.16
- GCCAGTCC — lower, -0.237
- CGCGGCAG — higher, 0.051
- CCCACGTC — higher, 0.0348
- GACAAAGC — higher, 0.06
- AATGAGGG — lower, -0.133
- CTTGCACA — lower, -0.0172
- GACCCCTA — lower, -0.248
- GATCGAGC — higher, 0.171
- ACTGTTTC — lower, -0.0462
- AGCCCGAC — lower, -0.149
- ACCTATCT — lower, -0.102
- GGCAGACC — lower, -0.282
- AGTGGCGC — lower, -0.0478
- GCGTACCA — higher, 0.00249
- CGTCAGAA — lower, -0.166
